Measurements as given in patent publication US20050234125A1, “Alpha-sulfonylamino-acetonitriles” (priority 2002, published 2005).
Some of these results come from one statement about several compounds together. Some ranges recur; such a range may be that of the whole group of compounds.

Legend:
Phytophthora [1] = assay: D-3a residual-protective action against Phytophthora on potato plants; conditions: 200 ppm; test D-3a) residual-protective, potato plants (Bintje)
Phytophthora [2] = assay: D-3b systemic action against Phytophthora on potato plants; conditions: 200 ppm; test D-3b) systemic, potato plants (Bintje)
Plasmopara viticola [3] = assay: D-1b residual-curative action against Plasmopara viticola on vines; assay type: in vivo; conditions: 200 ppm; test D-1b) residual-curative, vine seedlings
Phytophthora [4] = assay: D-2a residual-protective action against Phytophthora on tomato plants; assay type: in vivo; conditions: 200 ppm; stands under D-2 (tomato), residual-protective; sentence prints 'tests D-1a) and D-1 b)'
Plasmopara viticola [5] = assay: D-1a residual-protective action against Plasmopara viticola on vines; assay type: in vivo; conditions: 200 ppm; test D-1a) residual-protective, vine seedlings
Phytophthora [6] = assay: D-2b systemic action against Phytophthora on tomato plants; assay type: in vivo; conditions: 200 ppm; stands under D-2 (tomato), systemic; sentence prints 'tests D-1a) and D-1 b)'

CCC(C#N)(COc1ccc(-n2cncn2)cc1)NS(=O)(=O)Cc1ccccc1 (single isomer, unassigned) [compound 659]
inhibit fungal infestations (Phytophthora [1]): 60-100% | inhibit fungal infestations (Phytophthora [2]): 60-100%

CC(C#N)(COc1ccc(Cl)cc1)NS(=O)(=O)Cc1ccccc1 (stereo not drawn) [compound 040]
inhibit fungal infestations (Phytophthora [1]): 60-100% | inhibit fungal infestations (Plasmopara viticola [3]): 80-100% | inhibit fungal infestations (Phytophthora [4]): 80-100% | inhibit fungal infestations (Plasmopara viticola [5]): 80-100% | inhibit fungal infestations (Phytophthora [6]): 80-100% | inhibit fungal infestations (Phytophthora [2]): 60-100%

CCC(C#N)(COc1ccc(Cl)cc1)NS(=O)(=O)Cc1ccccc1 (stereo not drawn) [compound 052]
inhibit fungal infestations (Phytophthora [1]): 60-100% | inhibit fungal infestations (Plasmopara viticola [3]): 80-100% | inhibit fungal infestations (Phytophthora [4]): 80-100% | inhibit fungal infestations (Plasmopara viticola [5]): 80-100% | inhibit fungal infestations (Phytophthora [6]): 80-100% | inhibit fungal infestations (Phytophthora [2]): 60-100%

N#CC(CF)(COc1ccc(Cl)cc1)NS(=O)(=O)Cc1ccccc1 (stereo not drawn) [compound 059]
inhibit fungal infestations (Plasmopara viticola [3]): 80-100% | inhibit fungal infestations (Phytophthora [4]): 80-100% | inhibit fungal infestations (Plasmopara viticola [5]): 80-100% | inhibit fungal infestations (Phytophthora [6]): 80-100%

CC(C#N)(COc1ccc(OC(F)(F)F)cc1)NS(=O)(=O)Cc1ccccc1 (stereo not drawn) [compound 071]
inhibit fungal infestations (Plasmopara viticola [3]): 80-100% | inhibit fungal infestations (Phytophthora [4]): 80-100% | inhibit fungal infestations (Plasmopara viticola [5]): 80-100% | inhibit fungal infestations (Phytophthora [6]): 80-100%

Cc1cc(OCC(C)(C#N)NS(=O)(=O)Cc2ccccc2)ccc1Cl (stereo not drawn) [compound 091]
inhibit fungal infestations (Plasmopara viticola [3]): 80-100% | inhibit fungal infestations (Phytophthora [4]): 80-100% | inhibit fungal infestations (Plasmopara viticola [5]): 80-100% | inhibit fungal infestations (Phytophthora [6]): 80-100%

Cc1cc(OCC(C)(C#N)NS(=O)(=O)Cc2ccccc2)cc(C)c1Cl (stereo not drawn) [compound 101]
inhibit fungal infestations (Plasmopara viticola [3]): 80-100% | inhibit fungal infestations (Phytophthora [4]): 80-100% | inhibit fungal infestations (Plasmopara viticola [5]): 80-100% | inhibit fungal infestations (Phytophthora [6]): 80-100%

CCc1cc(OCC(C)(C#N)NS(=O)(=O)Cc2ccccc2)ccc1Cl (stereo not drawn) [compound 102]
inhibit fungal infestations (Plasmopara viticola [3]): 80-100% | inhibit fungal infestations (Phytophthora [4]): 80-100% | inhibit fungal infestations (Plasmopara viticola [5]): 80-100% | inhibit fungal infestations (Phytophthora [6]): 80-100%

COc1ccc(OCC(C)(C#N)NS(=O)(=O)Cc2ccccc2)cc1 (stereo not drawn) [compound 104]
inhibit fungal infestations (Plasmopara viticola [3]): 80-100% | inhibit fungal infestations (Phytophthora [4]): 80-100% | inhibit fungal infestations (Plasmopara viticola [5]): 80-100% | inhibit fungal infestations (Phytophthora [6]): 80-100%

CCC(C#N)(COc1ccc(OC)cc1)NS(=O)(=O)Cc1ccccc1 (stereo not drawn) [compound 105]
inhibit fungal infestations (Phytophthora [1]): 60-100% | inhibit fungal infestations (Plasmopara viticola [3]): 80-100% | inhibit fungal infestations (Phytophthora [4]): 80-100% | inhibit fungal infestations (Plasmopara viticola [5]): 80-100% | inhibit fungal infestations (Phytophthora [6]): 80-100% | inhibit fungal infestations (Phytophthora [2]): 60-100%

CC(C#N)(COc1ccc(-n2ccnc2)cc1)NS(=O)(=O)Cc1ccccc1 (stereo not drawn) [compound 157]
inhibit fungal infestations (Phytophthora [1]): 60-100% | inhibit fungal infestations (Plasmopara viticola [3]): 80-100% | inhibit fungal infestations (Phytophthora [4]): 80-100% | inhibit fungal infestations (Plasmopara viticola [5]): 80-100% | inhibit fungal infestations (Phytophthora [6]): 80-100% | inhibit fungal infestations (Phytophthora [2]): 60-100%

CC(C#N)(COc1ccc(Oc2ccccn2)cc1)NS(=O)(=O)Cc1ccccc1 (stereo not drawn) [compound 186]
inhibit fungal infestations (Plasmopara viticola [3]): 80-100% | inhibit fungal infestations (Phytophthora [4]): 80-100% | inhibit fungal infestations (Plasmopara viticola [5]): 80-100% | inhibit fungal infestations (Phytophthora [6]): 80-100%

CC(C#N)(COc1ccc(Oc2ncc(Cl)cc2Cl)cc1)NS(=O)(=O)Cc1ccccc1 (stereo not drawn) [compound 197]
inhibit fungal infestations (Plasmopara viticola [3]): 80-100% | inhibit fungal infestations (Phytophthora [4]): 80-100% | inhibit fungal infestations (Plasmopara viticola [5]): 80-100% | inhibit fungal infestations (Phytophthora [6]): 80-100%

CC(C#N)(COc1ccc(S(C)(=O)=O)cc1)NS(=O)(=O)Cc1ccccc1 (stereo not drawn) [compound 220]
inhibit fungal infestations (Plasmopara viticola [3]): 80-100% | inhibit fungal infestations (Phytophthora [4]): 80-100% | inhibit fungal infestations (Plasmopara viticola [5]): 80-100% | inhibit fungal infestations (Phytophthora [6]): 80-100%

CCC(C#N)(COc1ccc(C#N)cc1)NS(=O)(=O)Cc1ccccc1 (stereo not drawn) [compound 228]
inhibit fungal infestations (Phytophthora [1]): 60-100% | inhibit fungal infestations (Plasmopara viticola [3]): 80-100% | inhibit fungal infestations (Phytophthora [4]): 80-100% | inhibit fungal infestations (Plasmopara viticola [5]): 80-100% | inhibit fungal infestations (Phytophthora [6]): 80-100% | inhibit fungal infestations (Phytophthora [2]): 60-100%

CC(C#N)(COc1ccc(C#N)cc1)NS(=O)(=O)Cc1ccccc1 (stereo not drawn) [compound 229]
inhibit fungal infestations (Phytophthora [1]): 60-100% | inhibit fungal infestations (Plasmopara viticola [3]): 80-100% | inhibit fungal infestations (Phytophthora [4]): 80-100% | inhibit fungal infestations (Plasmopara viticola [5]): 80-100% | inhibit fungal infestations (Phytophthora [6]): 80-100% | inhibit fungal infestations (Phytophthora [2]): 60-100%

CC(C#N)(COc1ccc(-c2nnco2)cc1)NS(=O)(=O)Cc1ccccc1 (stereo not drawn) [compound 271]
inhibit fungal infestations (Phytophthora [1]): 60-100% | inhibit fungal infestations (Plasmopara viticola [3]): 80-100% | inhibit fungal infestations (Phytophthora [4]): 80-100% | inhibit fungal infestations (Plasmopara viticola [5]): 80-100% | inhibit fungal infestations (Phytophthora [6]): 80-100% | inhibit fungal infestations (Phytophthora [2]): 60-100%

CCOc1ccc(OCC(C#N)(CC)NS(=O)(=O)Cc2ccccc2)cc1 (stereo not drawn) [compound 288]
inhibit fungal infestations (Phytophthora [1]): 60-100% | inhibit fungal infestations (Plasmopara viticola [3]): 80-100% | inhibit fungal infestations (Phytophthora [4]): 80-100% | inhibit fungal infestations (Plasmopara viticola [5]): 80-100% | inhibit fungal infestations (Phytophthora [6]): 80-100% | inhibit fungal infestations (Phytophthora [2]): 60-100%

CCOc1ccc(OCC(C)(C#N)NS(=O)(=O)Cc2ccccc2)cc1 (stereo not drawn) [compound 289]
inhibit fungal infestations (Phytophthora [1]): 60-100% | inhibit fungal infestations (Plasmopara viticola [3]): 80-100% | inhibit fungal infestations (Phytophthora [4]): 80-100% | inhibit fungal infestations (Plasmopara viticola [5]): 80-100% | inhibit fungal infestations (Phytophthora [6]): 80-100% | inhibit fungal infestations (Phytophthora [2]): 60-100%

CCC(C#N)(COc1ccc(-n2cncn2)cc1)NS(=O)(=O)Cc1ccccc1 (stereo not drawn) [compound 331]
inhibit fungal infestations (Plasmopara viticola [3]): 80-100% | inhibit fungal infestations (Phytophthora [4]): 80-100% | inhibit fungal infestations (Plasmopara viticola [5]): 80-100% | inhibit fungal infestations (Phytophthora [6]): 80-100%

CC(C#N)(COc1ccc(-n2cncn2)cc1)NS(=O)(=O)Cc1ccccc1 (stereo not drawn) [compound 332]
inhibit fungal infestations (Phytophthora [1]): 60-100% | inhibit fungal infestations (Plasmopara viticola [3]): 80-100% | inhibit fungal infestations (Phytophthora [4]): 80-100% | inhibit fungal infestations (Plasmopara viticola [5]): 80-100% | inhibit fungal infestations (Phytophthora [6]): 80-100% | inhibit fungal infestations (Phytophthora [2]): 60-100%

CCC(C#N)(COc1ccc(-c2ccccn2)cc1)NS(=O)(=O)Cc1ccccc1 (stereo not drawn) [compound 381]
inhibit fungal infestations (Plasmopara viticola [3]): 80-100% | inhibit fungal infestations (Phytophthora [4]): 80-100% | inhibit fungal infestations (Plasmopara viticola [5]): 80-100% | inhibit fungal infestations (Phytophthora [6]): 80-100%

CCC(C#N)(COc1ccc(-c2csc(C)n2)cc1)NS(=O)(=O)Cc1ccccc1 (stereo not drawn) [compound 391]
inhibit fungal infestations (Plasmopara viticola [3]): 80-100% | inhibit fungal infestations (Phytophthora [4]): 80-100% | inhibit fungal infestations (Plasmopara viticola [5]): 80-100% | inhibit fungal infestations (Phytophthora [6]): 80-100%

CCC(C#N)(COc1ccc(-n2cccn2)cc1)NS(=O)(=O)Cc1ccccc1 (stereo not drawn) [compound 421]
inhibit fungal infestations (Phytophthora [1]): 60-100% | inhibit fungal infestations (Plasmopara viticola [3]): 80-100% | inhibit fungal infestations (Phytophthora [4]): 80-100% | inhibit fungal infestations (Plasmopara viticola [5]): 80-100% | inhibit fungal infestations (Phytophthora [6]): 80-100% | inhibit fungal infestations (Phytophthora [2]): 60-100%

CC(C#N)(COc1ccc(-n2cccn2)cc1)NS(=O)(=O)Cc1ccccc1 (stereo not drawn) [compound 422]
inhibit fungal infestations (Phytophthora [1]): 60-100% | inhibit fungal infestations (Plasmopara viticola [3]): 80-100% | inhibit fungal infestations (Phytophthora [4]): 80-100% | inhibit fungal infestations (Plasmopara viticola [5]): 80-100% | inhibit fungal infestations (Phytophthora [6]): 80-100% | inhibit fungal infestations (Phytophthora [2]): 60-100%

CCC(C#N)(COc1ccc(N2CCCC2=O)cc1)NS(=O)(=O)Cc1ccccc1 (stereo not drawn) [compound 452]
inhibit fungal infestations (Plasmopara viticola [3]): 80-100% | inhibit fungal infestations (Phytophthora [4]): 80-100% | inhibit fungal infestations (Plasmopara viticola [5]): 80-100% | inhibit fungal infestations (Phytophthora [6]): 80-100%

CCC(C#N)(NS(=O)(=O)Cc1ccccc1)C(C)Oc1ccc(O)cc1 (stereo not drawn) [compound 464]
inhibit fungal infestations (Plasmopara viticola [3]): 80-100% | inhibit fungal infestations (Phytophthora [4]): 80-100% | inhibit fungal infestations (Plasmopara viticola [5]): 80-100% | inhibit fungal infestations (Phytophthora [6]): 80-100%

CCC(C#N)(COc1ccc(OC(C)C)cc1)NS(=O)(=O)Cc1ccccc1 (stereo not drawn) [compound 469]
inhibit fungal infestations (Phytophthora [1]): 60-100% | inhibit fungal infestations (Plasmopara viticola [3]): 80-100% | inhibit fungal infestations (Phytophthora [4]): 80-100% | inhibit fungal infestations (Plasmopara viticola [5]): 80-100% | inhibit fungal infestations (Phytophthora [6]): 80-100% | inhibit fungal infestations (Phytophthora [2]): 60-100%

CCC(C#N)(COc1ccc([N+](=O)[O-])cc1)NS(=O)(=O)Cc1ccccc1 (stereo not drawn) [compound 479]
inhibit fungal infestations (Phytophthora [1]): 60-100% | inhibit fungal infestations (Plasmopara viticola [3]): 80-100% | inhibit fungal infestations (Phytophthora [4]): 80-100% | inhibit fungal infestations (Plasmopara viticola [5]): 80-100% | inhibit fungal infestations (Phytophthora [6]): 80-100% | inhibit fungal infestations (Phytophthora [2]): 60-100%

CCC(C#N)(COc1ccc(Br)cc1)NS(=O)(=O)Cc1ccccc1 (stereo not drawn) [compound 499]
inhibit fungal infestations (Plasmopara viticola [3]): 80-100% | inhibit fungal infestations (Phytophthora [4]): 80-100% | inhibit fungal infestations (Plasmopara viticola [5]): 80-100% | inhibit fungal infestations (Phytophthora [6]): 80-100%

CCC(=O)c1ccc(OCC(C)(C#N)NS(=O)(=O)Cc2ccccc2)cc1F (stereo not drawn) [compound 512]
inhibit fungal infestations (Plasmopara viticola [3]): 80-100% | inhibit fungal infestations (Phytophthora [4]): 80-100% | inhibit fungal infestations (Plasmopara viticola [5]): 80-100% | inhibit fungal infestations (Phytophthora [6]): 80-100%

CCC(=O)c1ccc(OCC(C#N)(CC)NS(=O)(=O)Cc2ccccc2)cc1F (stereo not drawn) [compound 513]
inhibit fungal infestations (Plasmopara viticola [3]): 80-100% | inhibit fungal infestations (Phytophthora [4]): 80-100% | inhibit fungal infestations (Plasmopara viticola [5]): 80-100% | inhibit fungal infestations (Phytophthora [6]): 80-100%

CCC(C#N)(COc1ccc(C(C)=O)cc1)NS(=O)(=O)Cc1ccccc1 (stereo not drawn) [compound 564]
inhibit fungal infestations (Phytophthora [1]): 60-100% | inhibit fungal infestations (Phytophthora [2]): 60-100%
